The values that follow come from publication PMC10907494 (Amino Acids, 2024).

Data set [1] in a line: general procedure: Fmoc solid-phase peptide synthesis; Rink Amide MBHA resin (0.68 mmol/g); Fmoc-Leu-Wang resin (0.65 mmol/g); HATU/HOBt/DIEA. Conditions: whole synthesis; for final HPLC purity: 210 nm.
Data set [2] can be described thus: general procedure: Fmoc solid-phase peptide synthesis; Fmoc-Rink Amide MBHA resin (0.68 mmol/g); HATU/HOBt/DIEA. Conditions: whole synthesis; for final HPLC purity: 210 nm.

Strings that start with PEPTIDE1 are HELM notation: dots part the residues, brackets hold end groups and non-standard residues.

Take “PEPTIDE1{[Tyr-m].G.G.[Phe-p].L.[am]}$PEPTIDE1,PEPTIDE1,1:R3-4:R3$$$V2.0”: in data set [1], the isolated yield is reported as 13.1% and the “final HPLC purity” value was 98.2%.
The like results for H-(cyclo-m,p)-[Phe-Gly-Gly-Phe]-Leu-NH2 were, in that order, 13.1% and 97.0%.
H-(cyclo-m,m)-[Phe-Gly-Gly-Phe]-Leu-NH2: in data set [1], the isolated yield is recorded as 8.8% and the “final HPLC purity” value was found to be 97.6%.
Consider H-(cyclo-p,m)-[Phe-Gly-Gly-Phe]-Leu-NH2, for which, in data set [1], the isolated yield is given as 9.5% and the “final HPLC purity” value amounted to 97.8%.
PEPTIDE1{Y.G.G.Y.L.[am]}$$$$V2.0: in data set [2], the isolated yield was 68% and the “final HPLC purity” value is reported as 97.8%.
The matching figures for PEPTIDE1{F.G.G.F.L.[am]}$$$$V2.0: 76% and 99.4%.
The matching figures for PEPTIDE1{Y.G.G.F.M.[am]}$$$$V2.0: 68% and 94.8%.
With “PEPTIDE1{[Tyr-m].G.G.[Tyr-m].L.[am]}$PEPTIDE1,PEPTIDE1,1:R3-4:R3$$$V2.0”, in data set [1], the isolated yield is reported as 15.1% and the “final HPLC purity” value worked out at 98.8%.
On to PEPTIDE1{Y.G.G.F.L.[am]}$$$$V2.0, for which, in data set [2], the isolated yield is listed as 79% and the “final HPLC purity” value came out at 99.3%.
